# Primary screen of a compound library

From ChEMBL document CHEMBL3988442, “University of Dundee, Small-Polar-MMV Screening Library” (2021).

Mtb glucose medium: 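Phenotypic screen: M. tuberculosis growth, glucose 7H9 medium, 3 days; the read-out is not stated. Concentration: 50 µM. Direction is inferred from retests: higher values go with more growth inhibition. Size under these conditions: about 69,000 compounds, about 760 of them at 50% or above in at least one test.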
Mtb cholesterol medium: 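Growth of Mycobacterium tuberculosis over 4 days (cholesterol / DPPC medium with tyloxapol); the read-out is not stated. Compounds at 50 µM. Higher reads as more growth inhibition (inferred: compounds with an IC50 in retests scored well above the rest). About 69,000 compounds were tested under these conditions; 0.54% (about 370) showed 50% or more at least once.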

Each number is a percent effect as filed. How 0% and 100% were set is not recorded. Most values in the screen are low, and negative values occur. Compounds were drawn at random from those tested, without regard to their results. Two or more numbers in one place are separate tests of the same structure; such repeats can differ widely.

structure	Mtb glucose medium	Mtb cholesterol medium
[O-][S+](CCN1CCc2[nH]nc(C(F)(F)F)c2C1)c1ccccc1 (stereo not drawn)	7.331	4.844
c1ccc(-c2cc(NCCCC3CCOC3)n3nccc3n2)cc1 (stereo not drawn)	41.18	19.48
CCOc1ccccc1N1CCN(C(=O)NCc2cc[nH]n2)CC1	-20.35	-6.693
O=C(O)C(F)(F)F.O=C(O)C(F)(F)F.O=C(O)C(F)(F)F.[H][C@]12CCN(Cc3ccccn3)[C@@]1([H])CC[C@H](COCCN1CCCC1)O2	-22.67	9.953 & -6.114
CN1CCc2nc(C3CCCN(C(=O)CC4CCCCC4)C3)ncc2C1 (stereo not drawn)	21.82	-2.704
CC(C)c1nn(C)c(Cl)c1CNCc1ccc2c(c1)OCO2.Cl	23.2	-2.675
CC(NC(=O)c1cccs1)C(=O)NCc1cccnc1N1CCCCC1 (stereo not drawn)	1.559	0.06226
[H][C@@]12C[C@H](C(=O)N3CCOCC3)[C@@]([H])(CN(C(=O)Nc3ccccc3)C1)O2	35.17	23.9
O=C(O)C(F)(F)F.O=C(O)C(F)(F)F.c1cnc(N2CCC3(CCN(CC4CCCC4)CC3)C2)nc1	14.2	2.481
Cc1ccc(NC(=O)c2ccc(=O)n(CC(=O)Nc3nccs3)n2)cc1	14.27	-35.16
O=C(NCCNc1ccc(Br)cn1)c1ccc(O)cc1	30.23	16.32
CCN(Cc1ccoc1)C(=O)C1CCN(C(=O)OC(C)(C)C)C1 (stereo not drawn)	-14.08 & 5.402	14.51
Cc1nn(CCCNC(=O)C2CCN(S(C)(=O)=O)CC2)c(Cl)c1Cl	24.37 & 6.468	18.77
Cc1cccc(NC(=O)Cn2nc3ccccn3c2=O)c1C	11.92	-19.64
C/C=C(\C)CN1C[C@H](NC(=O)CN2CCCC2=O)[C@@H](c2ccc(C)o2)C1	-30.89	-15.34
CC(C)c1noc(CN2CCC(c3nc4cc(Cl)ccc4o3)CC2)n1	5.748 & -4.813	33.71
Cc1n[nH]c(C2CN(CC(=O)NCc3sccc3C)CCO2)n1 (stereo not drawn)	-4.684	-4.258
O=C(Nc1ccc(-c2ccccc2)cn1)C1CCN(C(=O)C2CC2)CC1	30.86	-1.159
Cc1cc(N2CCCCCC2)n2nc(C)c(C)c2n1	24.93 & 39.29	28.31
Cc1ccc(CC2COc3ccccc3C2)c(N)n1 (stereo not drawn)	15.91 & -1.033	-23.9
CCc1nccn1-c1cccc(C2CCCN(C3CCCCC3)C2)n1 (stereo not drawn)	33.96	-2.417
Cc1ccccc1C(=O)N1C[C@@H](O)[C@H](N2CCOCC2)C1	-24.66	-7.017 & 1.421
COc1ccc(Cn2c(=O)n(C)c(=O)c3sccc32)cc1	-8.637	7.297
CCN(CC)CCn1ccnc1-c1cccc(O)c1	5.091	-2.043
CSCc1noc(C2CCC(=O)N(CCc3ccccc3)C2)n1 (stereo not drawn)	4.924	-11.1 & 15.67
O=S(=O)(c1ccc(-c2cnco2)cc1)N1CCCC(O)(CO)CC1 (stereo not drawn)	-45.9	-28.59
Cn1cc(CN2CCCC3(CCN(C(=O)c4ccccn4)C3)C2)cn1.O=C(O)C(F)(F)F.O=C(O)C(F)(F)F.O=C(O)C(F)(F)F (stereo not drawn)	13.3	-16.98
Cc1cccc(-c2nc(CN3CCn4c(nnc4C4CC4)C3)no2)c1	8.637 & 0.8886	-11.36
O=C(c1cscn1)N1CCC[C@]2(C[C@H](OCC3CC3)CO2)C1	14.28	-20.11
CCN(Cc1cnn(C)c1)C[C@H]1CC[C@@H](Cc2ccc(OC)nc2)O1	4.361	7.755
Nc1nccc(-c2c[nH]nc2C2CCCCC2)n1	-15.27	-29.18
Cc1cc(=O)n(C)cc1NC(=O)Cc1cccc(F)c1	-3.587	14.79
OCCn1nccc1C1CCN(CCOc2cccc(F)c2)CC1	13.91	-4.389
Clc1ccc2oc(C3CCN(Cc4nc(C5CC5)no4)CC3)nc2c1	1.575 & 44.27	46.77
CCCOC1Sc2nnc(C)n2N=C1c1ccccc1 (stereo not drawn)	-0.9669 & -0.6181	-1.446
COc1ccc([C@@H]2CN(C(=O)Cc3cccs3)C[C@H]2NC(C)=O)cc1	29.83 & 1.919	3.411
CS(=O)(=O)c1nccn1CCOc1ccc(F)cc1Cl	11.94	4.891
O=C(CN1CCC2(CCCN(CCO)C2=O)C1)NCCc1ccccc1 (stereo not drawn)	-6.71 & -11.89	-27.83
CCOC(=O)N1CC(C)=C(C)CN1C(=O)Nc1ccc(Cl)c(Cl)c1	15.39	4.181
O=C(O)C(F)(F)F.O=C(O)C(F)(F)F.O=C(O)c1c(-c2ccncc2)ncc2c1CCN(C1CCOC1)C2 (stereo not drawn)	-4.373 & -15.49	-7.311
CC(=O)N1CCCN(C(=O)CCOc2ccc(C(C)C)cc2)CC1	-1.404	-21.61